Laboratory results reported in PMC6997366.
These are yes or no findings as the source states them, for the method shown. In cells and extracts the contact can be indirect. Here binding means that the protein was enriched with, or labelled near, the bait; the list need not be complete.

By UniProt entry, the sequences of proteins in these tests, tags left out.
UniProt Q9Y4K3: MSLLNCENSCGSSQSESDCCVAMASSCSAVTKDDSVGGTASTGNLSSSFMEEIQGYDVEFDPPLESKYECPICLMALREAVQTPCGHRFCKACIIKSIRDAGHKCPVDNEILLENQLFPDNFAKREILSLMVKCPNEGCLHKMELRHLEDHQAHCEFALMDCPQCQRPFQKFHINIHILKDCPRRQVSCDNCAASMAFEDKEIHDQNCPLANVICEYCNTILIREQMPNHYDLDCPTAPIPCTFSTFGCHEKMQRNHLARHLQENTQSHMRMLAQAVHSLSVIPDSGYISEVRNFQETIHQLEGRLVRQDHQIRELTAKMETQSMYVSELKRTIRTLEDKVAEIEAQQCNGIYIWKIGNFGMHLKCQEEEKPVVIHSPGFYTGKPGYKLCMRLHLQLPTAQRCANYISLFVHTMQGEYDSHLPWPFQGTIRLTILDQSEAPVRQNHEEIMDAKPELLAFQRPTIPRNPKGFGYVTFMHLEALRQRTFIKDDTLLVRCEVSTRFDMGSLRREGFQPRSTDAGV

T1: A20 (Tumor necrosis factor alpha-induced protein 3), expressed from pcDNA3-A20 (UniProt P21580)
T1 sequence: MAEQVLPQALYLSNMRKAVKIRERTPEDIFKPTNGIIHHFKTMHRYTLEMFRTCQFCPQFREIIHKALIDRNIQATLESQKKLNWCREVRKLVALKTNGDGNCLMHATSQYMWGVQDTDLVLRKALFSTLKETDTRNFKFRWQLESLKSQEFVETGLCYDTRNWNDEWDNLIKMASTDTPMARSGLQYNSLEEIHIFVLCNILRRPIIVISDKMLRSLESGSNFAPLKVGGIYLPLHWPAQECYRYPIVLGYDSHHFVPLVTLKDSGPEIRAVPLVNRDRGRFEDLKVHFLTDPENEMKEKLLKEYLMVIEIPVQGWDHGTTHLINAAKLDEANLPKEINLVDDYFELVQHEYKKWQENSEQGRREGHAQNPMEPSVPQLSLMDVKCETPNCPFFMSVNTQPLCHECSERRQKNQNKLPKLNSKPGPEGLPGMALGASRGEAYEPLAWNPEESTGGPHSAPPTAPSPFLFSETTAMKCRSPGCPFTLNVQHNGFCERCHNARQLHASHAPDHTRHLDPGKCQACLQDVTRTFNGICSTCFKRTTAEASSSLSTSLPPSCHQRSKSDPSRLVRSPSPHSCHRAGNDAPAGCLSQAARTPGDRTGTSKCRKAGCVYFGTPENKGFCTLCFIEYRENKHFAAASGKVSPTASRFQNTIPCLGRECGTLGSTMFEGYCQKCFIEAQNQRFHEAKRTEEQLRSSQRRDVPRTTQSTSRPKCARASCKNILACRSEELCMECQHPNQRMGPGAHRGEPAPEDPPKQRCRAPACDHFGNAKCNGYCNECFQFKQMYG

B1: phosphofructokinase, liver type (PFKL), endogenous (enzyme, UniProt P17858 1-780)
chain: MAAVDLEKLRASGAGKAIGVLTSGGDAQGMNAAVRAVTRMGIYVGAKVFLIYEGYEGLVEGGENIKQANWLSVSNIIQLGGTIIGSARCKAFTTREGRRAAAYNLVQHGITNLCVIGGDGSLTGANIFRSEWGSLLEELVAEGKISETTARTYSHLNIAGLVGSIDNDFCGTDMTIGTDSALHRIMEVIDAITTTAQSHQRTFVLEVMGRHCGYLALVSALASGADWLFIPEAPPEDGWENFMCERLGETRSRGSRLNIIIIAEGAIDRNGKPISSSYVKDLVVQRLGFDTRVTVLGHVQRGGTPSAFDRILSSKMGMEAVMALLEATPDTPACVVTLSGNQSVRLPLMECVQMTKEVQKAMDDKRFDEATQLRGGSFENNWNIYKLLAHQKPPKEKSNFSLAILNVGAPAAGMNAAVRSAVRTGISHGHTVYVVHDGFEGLAKGQVQEVGWHDVAGWLGRGGSMLGTKRTLPKGQLESIVENIRIYGIHALLVVGGFEAYEGVLQLVEARGRYEELCIVMCVIPATISNNVPGTDFSLGSDTAVNAAMESCDRIKQSASGTKRRVFIVETMGGYCGYLATVTGIAVGADAAYVFEDPFNIHDLKVNVEHMTEKMKTDIQRGLVLRNEKCHDYYTTEFLYNLYSSEGKGVFDCRTNVLGHLQQGGAPTPFDRNYGTKLGVKAMLWLSEKLREVYRKGRVFANAPDSACVIGLKKKAVAFSPVTELKKDTDFEHRMPREQWWLSLRLMLKMLAQYRISMAAYVSGELEHVTRRTLSMDKGF

Target: T1, A20 (Tumor necrosis factor alpha-induced protein 3), expressed from pcDNA3-A20
Assay: affinity purification with mass spectrometry; Huh7 cells transduced with pcDNA3-A20 or empty vector, MG132 (10 uM) for 8 h; A20 pulled down by IP with anti-A20 antibody and protein G agarose at 4 °C; LC-MS/MS

Row | Molecule | binding
1 | TRAF6 (from UniProt Q9Y4K3 1-522) | binds
2 | B1 | binds
